Data reported in US20230053152A1, “Novel Quercetin Redox Derivative And Use Thereof As BET Inhibitor” (Benobio Co., Ltd., priority 2019, published 2023).
Some of these results come from one statement about several compounds together.

By UniProt entry, the sequences of proteins in these tests, tags left out. Residues count along the entry.
UniProt Q15059, 34-140 limits assumed: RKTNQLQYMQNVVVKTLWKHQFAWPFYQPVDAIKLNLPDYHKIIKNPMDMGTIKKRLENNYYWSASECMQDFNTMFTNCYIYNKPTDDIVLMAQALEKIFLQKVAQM
UniProt P25440, 74-180 limits assumed: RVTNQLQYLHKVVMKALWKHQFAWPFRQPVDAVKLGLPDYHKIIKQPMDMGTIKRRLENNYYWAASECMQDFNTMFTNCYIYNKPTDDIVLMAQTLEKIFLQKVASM

Tests used:
BRD3 (BD1) = molecular target: T1, BRD3 (BD1) (Homo sapiens, UniProt Q15059); assay: Binding inhibition of BRD3 (BD1), same manner as Test Example 1; settings: relative to RVX-208
T1 construct: on the BRD3 (BD1, BD2, BD1+BD2) protein; GST

BRD2 (BD1) = molecular target: T2, BRD2 (BD1) (Homo sapiens, UniProt P25440); assay: AlphaScreen binding inhibition of GST-BRD2 (BD1) and tetraacetylated histone H4 peptide; settings: relative to RVX-208
T2 construct: 100 nM GST-BRD2 (BD1, BD2, BD1+BD2)

Compound | IC50 value of BRD3 (BD1) as compared to the compound of Comparative Example 1 (BRD3 (BD1)) | IC50 value of BRD2 (BD1) as compared to the compound of Comparative Example 1 (BRD2 (BD1))
O=c1c(O)c(-c2ccc3ccoc3c2)oc2cc(O)cc(O)c12 [BBC0313, 2-(benzofuran-6-yl)-3,5,7-trihydroxy-chromen-4-one] | less than 10% | –
Cc1cc(-c2oc3cc(O)cc(O)c3c(=O)c2O)cc(C)c1OC1COC1 [BBC0306, 2-[3,5-dimethyl-4-(oxetan-3-yloxy)phenyl]-3,5,7-trihydroxy-chromen-4-one] | less than 10% | less than 10%
O=c1c(O)c(-c2ccc3c(c2)OCC3)oc2cc(O)cc(O)c12 [BBC0312, 2-(2,3-dihydrobenzofuran-6-yl)-3,5,7-trihydroxy-chromen-4-one] | – | less than 10%
